PubChem BioAssay AID720505, Drosophila RNAi Screening Center, 2013

Test: 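Knock-downs that reduce calcium influx once internal stores are emptied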 (primary screen)
Cells: Drosophila S2R+ cells
Reagent: long dsRNA against Drosophila genes
Treatment: thapsigargin (2 µM) in calcium-free buffer to empty internal stores, then 2 mM calcium added back
Measured: 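Fluo-4 signal in 384-well plates read on a FLIPR after thapsigargin (2 µM, calcium-free) store depletion and 2 mM calcium add-back; unnormalised mean endpoint per well; screen run twice, selected wells retested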
Direction: calcium signal and retest calcium signal: higher = more calcium entry after store depletion
Call rule: 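Knock-downs counted as hits when calcium entry dropped relative to STIM1 positive and Rho1 negative controls present on each plate; roughly 1500 genes called, with reductions of differing size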
Meaning of the calls: active = called as lowering calcium entry; inactive = not called
In all, the deposit lists about 20,000 reagents; this is a random part of those that have a named target and a result. Over the whole deposit, about 2,100 (10%) were called active. 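Raw plate signals without normalisation; calls rest on control-based scores that were not deposited; replicate 2 separates called from uncalled poorly.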 The numbers tell different reagents against one gene apart. Names joined by + are all predicted targets of the reagent. Not stated in the record: the amount of reagent, the time to read-out.

gene knocked down	dsRNA no.	calcium signal, replicate 1	calcium signal, replicate 2	retest calcium signal, replicate 1	retest calcium signal, replicate 2	outcome
CG9992	1	165	151			inactive
CG9992	2	189	93.3			inactive
ClC-c	1	133	84.7			inactive
CG31827 + CG18478	1	110	95.3			inactive
nrv2	1	55	137			active
nrv2	2	45.6	136			active
geminin	1	103	194			inactive
grn	1	128	147			inactive
dpr14	1	158	116			inactive
CG14229	1	77.7	103			inactive
CG14229	2	96.8	114			inactive
CG30091	1	175	111			inactive
Obp47b + CG7741	1	106	141			inactive
CG33235	1	83	104			inactive
Elo68alpha	1	124	169			inactive
Caf1-55	1	80	137			inactive
Arf6	1	105	158			inactive
Opbp	1	116	137			inactive
CG10353	1	75.1	90.2			active
drd	1	97	93.5			inactive
drd	2	112	94.7			inactive
CG3342	1	100	118			inactive
Kdm4B	1	162	117			inactive
CG14043	1	140	87.6			inactive
CG3502 + CG9863	1	96.3	224			inactive
swi2	1	109	139			inactive
CG34286	1	141	91.7			inactive
Poxn	1	71	89.5			active
Poxn	2	130	108			inactive
CG42518 + MED9	1	115	131			inactive
CG17032	1	107	148			inactive
CG15286	1	110	86.3			inactive
Cdk12	1	108	112			inactive
Cdk12	2	139	170			inactive
mus304	1	96.6	129			inactive
CG6015	1	44.2	75.6			active
CG7548	1	135	104			inactive
Ipk2	1	115	138			inactive
flfl	1	72.3	98.2			active
CG14856	1	128	181			inactive
Pp4-19C	1	70.2	184			active
Pp4-19C	2	61.8	150			active
Pp4-19C	3	77.7	130			inactive
Arglu1	1	216	180			inactive
CG8192	1	123	133			inactive
DhpD	1	108	82.5			inactive
CG34144 (retired record)	1					active
CG34144 (retired record)	2	89.8	82.3			inactive
CG34144 (retired record)	3	109	85.9			inactive
CG34144 (retired record)	4	95.4	134			inactive
CG43795 + SkpF	1	81.5	120			inactive
CG4377	1	107	82.6			inactive
Prx2	1	126	97.4			inactive
bocks	1	91.1	142			inactive
7B2	1	120	141			inactive
CG9300	1	102	109			inactive
CG3604	1	161	101			inactive
CG12519	1	119	161			inactive
CG12519	2	270	121			inactive
Myo95E	1	165	187			inactive
mora	1	243	142			inactive
CG8765	1	101	151			inactive
CG8765	2	94.1	148			inactive
Rh5	1	93.6	86.9			inactive

Entries listed so far whose gene name begins with D or d (4):
gene knocked down	dsRNA no.	calcium signal, replicate 1	calcium signal, replicate 2	retest calcium signal, replicate 1	retest calcium signal, replicate 2	outcome
dpr14	1	158	116			inactive
drd	1	97	93.5			inactive
drd	2	112	94.7			inactive
DhpD	1	108	82.5			inactive

Further results:
gene knocked down	dsRNA no.	calcium signal, replicate 1	calcium signal, replicate 2	retest calcium signal, replicate 1	retest calcium signal, replicate 2	outcome
CR42545	1	111	84.6			inactive
Cp36	1	242	97.5			inactive
Srp19	1	60.5	53.9			active
Nlg3	1	124	180			inactive
Nlg3	2	123	104			inactive
Nlg3	3	104	93.7			inactive
CG17027	1	104	110			inactive
Polr2J	1	119	99			inactive
Sfxn2	1	76	170			inactive
CG1951	1	77.1	96.4			inactive
sta	1	49.8	98.8			active
eIF2alpha	1	93.7	119			inactive
Sap130	1	63.1	93.3			inactive
Sox102F	1	110	157			inactive
RpL41	1	100	107			inactive
Cyp6g1	1	175	141			inactive
spo	1	126	78.6			inactive
CG15177	1	101	169			inactive
Zasp66	1	78.8	95.4			inactive
Zasp66	2	96.9	87.4			inactive
yki	1	184	109			inactive
sel	1	188	185	86.8	133	inactive
CG5167	1	195	122			inactive
CG14186	1	101	88.6			inactive
gry	1	88.7	76.9			inactive
ATPsynCF6	1	184	126			inactive
Eig71Ed	1	75	110			inactive
CG42634 + CG42635	1	124	138			inactive
cype	1	223	88.1			inactive
Acp26Aa	1	199	99.6			inactive
CG6415	1	66.4	98.6			active
CG14742	1	108	99.4			inactive
dpr1	1	142	91.4			inactive
dpr1	2	75.3	92.7			inactive
CG14598	1	108	122			inactive
CG9458	1	150	108			inactive
CG13733	1	100	113			inactive
CG9632	1	159	283			inactive
CG43078	1	105	112			inactive
CG43078	2	93.2	109			inactive
CG43078	3	283	118			inactive
CG43078	4	66.3	244			inactive
